At least one compound was matched to its structure with a doubt left.
What was measured:
[1] = test system: permanent focal cerebral ischemia model (MCAO); test: Permanent focal cerebral ischemia model by middle cerebral artery occlusion (MCAO), infarction size by TTC staining of brain slices; assay type: in vivo, Sprague Dawley rats; settings: CDPC via ECS, 0.2 μL/min, 2 μL, concentration 40-60 mM
Description: Experimental conditions: Sprague Dawley rats weighing about 250-300 g with a brain tissue volume of 1.5 mL were used. The subjects were divided into eight groups, and each group had eight rats. […] Efficacy validation: two hours after ECS administration and one hour after intraperitoneal injection, a permanent focal cerebral ischemia model was made by middle cerebral artery occlusion (MCAO). The brains of rats from each group were removed 12 hours after cerebral ischemia. The brain slices were obtained by cutting the brain at every 2 mm (5 slices from each rat). Then the slices were stained with 2,3,5-triphenyl-2H-tetrazolium chloride (TTC) for evaluating the cerebral infarction size and the effectiveness of administration of the drug via ECS.

focal brain ischemia = settings: cited from earlier work

Compound: C[N+](C)(C)CCOP(=O)(O)OP(=O)([O-])OC[C@H]1O[C@@H](n2ccc(N)nc2=O)[C@H](O)[C@@H]1O [CDPC, citicoline]
- Effect in treating the cerebral ischemia of rats [1]: significant effect
- Infarct size of the neostriatum (focal brain ischemia; 0.5 g/kg, 1 g/kg and 2 g/kg into the abdominal cavity, middle cerebral artery blocked one hour after injection (Hurtado 2005)): can reduce infarct size of the neostriatum
- 48 hour-brain infarct size compared to the control group (focal brain ischemia; 2 g/kg into the abdominal cavity four hours after embolism (Hurtado 2008)): reduced significantly

Reference: patent US9192619B2 (Peking University Third Hospital, priority 2010, dated 2015)
